In patent publication US12419871B2, “Biomolecules involved in Alzheimer's disease” (ELECTROPHORETICS LIMITED, priority 2015, dated 2025):

B1: Q09470 (protein, UniProt Q09470 1-495, looked up)
chain: MTVMSGENVDEASAAPGHPQDGSYPRQADHDDHECCERVVINISGLRFETQLKTLAQFPNTLLGNPKKRMRYFDPLRNEYFFDRNRPSFDAILYYYQSGGRLRRPVNVPLDMFSEEIKFYELGEEAMEKFREDEGFIKEEERPLPEKEYQRQVWLLFEYPESSGPARVIAIVSVMVILISIVIFCLETLPELKDDKDFTGTVHRIDNTTVIYNSNIFTDPFFIVETLCIIWFSFELVVRFFACPSKTDFFKNIMNFIDIVAIIPYFITLGTEIAEQEGNQKGEQATSLAILRVIRLVRVFRIFKLSRHSKGLQILGQTLKASMRELGLLIFFLFIGVILFSSAVYFAEAEEAESHFSSIPDAFWWAVVSMTTVGYGDMYPVTIGGKIVGSLCAIAGVLTIALPVPVIVSNFNYFYHRETEGEEQAQLLHVSSPNLASDSDLSRRSSSTMSKSEYMEIEEDMNNSIAHYRQVNIRTANCTTANQNCVNKSKLLTDV
modifications: full-length
B2: Q13045 (protein, UniProt Q13045 1-1269, looked up)
chain: MEATGVLPFVRGVDLSGNDFKGGYFPENVKAMTSLRWLKLNRTGLCYLPEELAALQKLEHLSVSHNNLTTLHGELSSLPSLRAIVARANSLKNSGVPDDIFKLDDLSVLDLSHNQLTECPRELENAKNMLVLNLSHNSIDTIPNQLFINLTDLLYLDLSENRLESLPPQMRRLVHLQTLVLNGNPLLHAQLRQLPAMTALQTLHLRSTQRTQSNLPTSLEGLSNLADVDLSCNDLTRVPECLYTLPSLRRLNLSSNQITELSLCIDQWVHVETLNLSRNQLTSLPSAICKLSKLKKLYLNSNKLDFDGLPSGIGKLTNLEEFMAANNNLELVPESLCRCPKLRKLVLNKNHLVTLPEAIHFLTEIEVLDVRENPNLVMPPKPADRAAEWYNIDFSLQNQLRLAGASPATVAAAAAAGSGPKDPMARKMRLRRRKDSAQDDQAKQVLKGMSDVAQEKNKKQEESADARAPSGKVRRWDQGLEKPRLDYSEFFTEDVGQLPGLTIWQIENFVPVLVEEAFHGKFYEADCYIVLKTFLDDSGSLNWEIYYWIGGEATLDKKACSAIHAVNLRNYLGAECRTVREEMGDESEEFLQVFDNDISYIEGGTASGFYTVEDTHYVTRMYRVYGKKNIKLEPVPLKGTSLDPRFVFLLDRGLDIYVWRGAQATLSSTTKARLFAEKINKNERKGKAEITLLVQGQELPEFWEALGGEPSEIKKHVPEDFWPPQPKLYKVGLGLGYLELPQINYKLSVEHKQRPKVELMPRMRLLQSLLDTRCVYILDCWSDVFIWLGRKSPRLVRAAALKLGQELCGMLHRPRHATVSRSLEGTEAQVFKAKFKNWDDVLTVDYTRNAEAVLQSPGLSGKVKRDAEKKDQMKADLTALFLPRQPPMSLAEAEQLMEEWNEDLDGMEGFVLEGKKFARLPEEEFGHFYTQDCYVFLCRYWVPVEYEEEEKKEDKEEKAEGKEGEEATAEAEEKQPEEDFQCIVYFWQGREASNMGWLTFTFSLQKKFESLFPGKLEVVRMTQQQENPKFLSHFKRKFIIHRGKRKAVQGAQQPSLYQIRTNGSALCTRCIQINTDSSLLNSEFCFILKVPFESEDNQGIVYAWVGRASDPDEAKLAEDILNTMFDTSYSKQVINEGEEPENFFWVGIGAQKPYDDDAEYMKHTRLFRCSNEKGYFAVTEKCSDFCQDDLADDDIMLLDNGQEVYMWVGTQTSQVEIKLSLKACQVYIQHMRSKEHERPRRLRLVRKGNEQHAFTRCFHAWSAFCKALA
modifications: full-length
B3: O60678 (protein, UniProt O60678 1-531, looked up)
chain: MCSLASGATGGRGAVENEEDLPELSDSGDEAAWEDEDDADLPHGKQQTPCLFCNRLFTSAEETFSHCKSEHQFNIDSMVHKHGLEFYGYIKLINFIRLKNPTVEYMNSIYNPVPWEKEEYLKPVLEDDLLLQFDVEDLYEPVSVPFSYPNGLSENTSVVEKLKHMEARALSAEAALARAREDLQKMKQFAQDFVMHTDVRTCSSSTSVIADLQEDEDGVYFSSYGHYGIHEEMLKDKIRTESYRDFIYQNPHIFKDKVVLDVGCGTGILSMFAAKAGAKKVLGVDQSEILYQAMDIIRLNKLEDTITLIKGKIEEVHLPVEKVDVIISEWMGYFLLFESMLDSVLYAKNKYLAKGGSVYPDICTISLVAVSDVNKHADRIAFWDDVYGFKMSCMKKAVIPEAVVEVLDPKTLISEPCGIKHIDCHTTSISDLEFSSDFTLKITRTSMCTAIAGYFDIYFEKNCHNRVVFSTGPQSTKTHWKQTVFLLEKPFSVKAGEALKGKVTVHKNKKDPRSLTVTLTLNNSTQTYGLQ
modifications: full-length
B4: Q92520 (protein, UniProt Q92520 1-227, looked up)
chain: MRVAGAAKLVVAVAVFLLTFYVISQVFEIKMDASLGNLFARSALDTAARSTKPPRYKCGISKACPEKHFAFKMASGAANVVGPKICLEDNVLMSGVKNNVGRGINVALANGKTGEVLDTKYFDMWGGDVAPFIEFLKAIQDGTIVLMGTYDDGATKLNDEARRLIADLGSTSITNLGFRDNWVFCGGKGIKTKSPFEQHIKNNKDTNKYEGWPEVVEMEGCIPQKQD
modifications: full-length
B5: Q8TBB6 (protein, UniProt Q8TBB6 1-771, looked up)
chain: MSGFFTSLDPRRVQWGAAWYAMHSRILRTKPVESMLEGTGTTTAHGTKLAQVLTTVDLISLGVGSCVGTGMYVVSGLVAKEMAGPGVIVSFIIAAVASILSGVCYAEFGVRVPKTTGSAYTYSYVTVGEFVAFFIGWNLILEYLIGTAAGASALSSMFDSLANHTISRWMADSVGTLNGLGKGEESYPDLLALLIAVIVTIIVALGVKNSIGFNNVLNVLNLAVWVFIMIAGLFFINGKYWAEGQFLPHGWSGVLQGAATCFYAFIGFDIIATTGEEAKNPNTSIPYAITASLVICLTAYVSVSVILTLMVPYYTIDTESPLMEMFVAHGFYAAKFVVAIGSVAGLTVSLLGSLFPMPRVIYAMAGDGLLFRFLAHVSSYTETPVVACIVSGFLAALLALLVSLRDLIEMMSIGTLLAYTLVSVCVLLLRYQPESDIDGFVKFLSEEHTKKKEGILADCEKEACSPVSEGDEFSGPATNTCGAKNLPSLGDNEMLIGKSDKSTYNVNHPNYGTVDMTTGIEADESENIYLIKLKKLIGPHYYTMRIRLGLPGKMDRPTAATGHTVTICVLLLFILMFIFCSFIIFGSDYISEQSWWAILLVVLMVLLISTLVFVILQQPENPKKLPYMAPCLPFVPAFAMLVNIYLMLKLSTITWIRFAVWCFVGLLIYFGYGIWNSTLEISAREEALHQSTYQRYDVDDPFSVEEGFSYATEGESQEDWGGPTEDKGFYYQQMSDAKANGRTSSKAKSKSKHKQNSEALIANDELDYSPE
modifications: full-length
B6: Q02156 (protein, UniProt Q02156 1-737, looked up)
chain: MVVFNGLLKIKICEAVSLKPTAWSLRHAVGPRPQTFLLDPYIALNVDDSRIGQTATKQKTNSPAWHDEFVTDVCNGRKIELAVFHDAPIGYDDFVANCTIQFEELLQNGSRHFEDWIDLEPEGRVYVIIDLSGSSGEAPKDNEERVFRERMRPRKRQGAVRRRVHQVNGHKFMATYLRQPTYCSHCRDFIWGVIGKQGYQCQVCTCVVHKRCHELIITKCAGLKKQETPDQVGSQRFSVNMPHKFGIHNYKVPTFCDHCGSLLWGLLRQGLQCKVCKMNVHRRCETNVAPNCGVDARGIAKVLADLGVTPDKITNSGQRRKKLIAGAESPQPASGSSPSEEDRSKSAPTSPCDQEIKELENNIRKALSFDNRGEEHRAASSPDGQLMSPGENGEVRQGQAKRLGLDEFNFIKVLGKGSFGKVMLAELKGKDEVYAVKVLKKDVILQDDDVDCTMTEKRILALARKHPYLTQLYCCFQTKDRLFFVMEYVNGGDLMFQIQRSRKFDEPRSRFYAAEVTSALMFLHQHGVIYRDLKLDNILLDAEGHCKLADFGMCKEGILNGVTTTTFCGTPDYIAPEILQELEYGPSVDWWALGVLMYEMMAGQPPFEADNEDDLFESILHDDVLYPVWLSKEAVSILKAFMTKNPHKRLGCVASQNGEDAIKQHPFFKEIDWVLLEQKKIKPPFKPRIKTKRDVNNFDQDFTREEPVLTLVDEAIVKQINQEEFKGFSYFGEDLMP
modifications: full-length
B7: Q9H7Z7 (protein, UniProt Q9H7Z7 1-377, looked up)
chain: MDPAARVVRALWPGGCALAWRLGGRPQPLLPTQSRAGFAGAAGGPSPVAAARKGSPRLLGAAALALGGALGLYHTARWHLRAQDLHAERSAAQLSLSSRLQLTLYQYKTCPFCSKVRAFLDFHALPYQVVEVNPVRRAEIKFSSYRKVPILVAQEGESSQQLNDSSVIISALKTYLVSGQPLEEIITYYPAMKAVNEQGKEVTEFGNKYWLMLNEKEAQQVYGGKEARTEEMKWRQWADDWLVHLISPNVYRTPTEALASFDYIVREGKFGAVEGAVAKYMGAAAMYLISKRLKSRHRLQDNVREDLYEAADKWVAAVGKDRPFMGGQKPNLADLAVYGVLRVMEGLDAFDDLMQHTHIQPWYLRVERAITEASPAH
modifications: full-length
B8: P02760 (protein, UniProt P02760 1-352, looked up)
chain: MRSLGALLLLLSACLAVSAGPVPTPPDNIQVQENFNISRIYGKWYNLAIGSTCPWLKKIMDRMTVSTLVLGEGATEAEISMTSTRWRKGVCEETSGAYEKTDTDGKFLYHKSKWNITMESYVVHTNYDEYAIFLTKKFSRHHGPTITAKLYGRAPQLRETLLQDFRVVAQGVGIPEDSIFTMADRGECVPGEQEPEPILIPRVRRAVLPQEEEGSGGGQLVTEVTKKEDSCQLGYSAGPCMGMTSRYFYNGTSMACETFQYGGCMGNGNNFVTEKECLQTCRTVAACNLPIVRGPCRAFIQLWAFDAVKGKCVLFPYGGCQGNGNKFYSEKECREYCGVPGDGDEELLRFSN
modifications: full-length
B9: P55008 (protein, UniProt P55008 1-147, looked up)
chain: MSQTRDLQGGKAFGLLKAQQEERLDEINKQFLDDPKYSSDEDLPSKLEGFKEKYMEFDLNGNGDIDIMSLKRMLEKLGVPKTHLELKKLIGEVSSGSGETFSYPDFLRMMLGKRSAILKMILMYEEKAREKEKPTGPPAKKAISELP
modifications: full-length
B10: Q99435 (protein, UniProt Q99435 1-816, looked up)
chain: MESRVLLRTFCLIFGLGAVWGLGVDPSLQIDVLTELELGESTTGVRQVPGLHNGTKAFLFQDTPRSIKASTATAEQFFQKLRNKHEFTILVTLKQTHLNSGVILSIHHLDHRYLELESSGHRNEVRLHYRSGSHRPHTEVFPYILADDKWHKLSLAISASHLILHIDCNKIYERVVEKPSTDLPLGTTFWLGQRNNAHGYFKGIMQDVQLLVMPQGFIAQCPDLNRTCPTCNDFHGLVQKIMELQDILAKTSAKLSRAEQRMNRLDQCYCERTCTMKGTTYREFESWIDGCKNCTCLNGTIQCETLICPNPDCPLKSALAYVDGKCCKECKSICQFQGRTYFEGERNTVYSSSGVCVLYECKDQTMKLVESSGCPALDCPESHQITLSHSCCKVCKGYDFCSERHNCMENSICRNLNDRAVCSCRDGFRALREDNAYCEDIDECAEGRHYCRENTMCVNTPGSFMCICKTGYIRIDDYSCTEHDECITNQHNCDENALCFNTVGGHNCVCKPGYTGNGTTCKAFCKDGCRNGGACIAANVCACPQGFTGPSCETDIDECSDGFVQCDSRANCINLPGWYHCECRDGYHDNGMFSPSGESCEDIDECGTGRHSCANDTICFNLDGGYDCRCPHGKNCTGDCIHDGKVKHNGQIWVLENDRCSVCSCQNGFVMCRRMVCDCENPTVDLFCCPECDPRLSSQCLHQNGETLYNSGDTWVQNCQQCRCLQGEVDCWPLPCPDVECEFSILPENECCPRCVTDPCQADTIRNDITKTCLDEMNVVRFTGSSWIKHGTECTLCQCKNGHICCSVDPQCLQEL
modifications: full-length

assay: TMTcalibrator quantification of regulated proteins in AD CSF versus control; set-up: species or system human; conditions: CSF of AD patient versus control; non-modified peptides of each protein summed for three control and three AD cases

B1 and B2 are within 0.2 log units of each other in “Log2 AD/Control” value: 0.73 for the first, 0.65 for the second.

Going from B3 to B4, the “Log2 AD/Control” value falls from 1.27 to 0.68.

Going from B5 to B6, the “Log2 AD/Control” value rises from 0.66 to 0.99.

First: B7
Second: B8
The “Log2 AD/Control” value of the first is higher: 0.98 for the first, −0.95 for the second.

B9 and B10 are within 0.2 log units of each other in “Log2 AD/Control” value: 0.82 for the first, 0.68 for the second.
